In all, about 33,000 sequences were measured (“E-score (-0.5 to 0.5)”: median about -8e-05, highest 2% from about 0.23 on). Some of the results follow.
What follows are sequences tested against T1, Nrg2 (UniProt P38082) (assay: PBM E-score (8-mer binding enrichment) (E-score (-0.5 to 0.5)); higher = stronger / more preferred TF binding). Conditions: protein concentration: 100 nM; construct: GST-full length.
T1 sequence: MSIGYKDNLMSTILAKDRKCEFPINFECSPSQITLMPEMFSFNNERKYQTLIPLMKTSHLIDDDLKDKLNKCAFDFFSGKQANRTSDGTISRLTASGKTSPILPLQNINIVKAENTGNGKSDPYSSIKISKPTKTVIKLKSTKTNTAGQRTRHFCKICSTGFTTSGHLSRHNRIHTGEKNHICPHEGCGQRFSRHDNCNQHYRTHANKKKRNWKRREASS
Summary of the method: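 The E-score, a modified Wilcoxon-Mann-Whitney statistic, was computed by the Universal PBM Analysis Suite for every ungapped eight-base word pooled with its reverse complement. Scans behind it were normalised with masliner after bound GST-tagged yeast transcription factors were detected with fluorescent anti-GST. The proteins, at about 100-200 nM, had been applied to universal all-10-mer Agilent arrays made double-stranded by primer extension.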
With AACATAAC the “PBM E-score” value was 0.134. With CCGATTAG the “PBM E-score” value was 0.167. In the case of CCATTTAG, the “PBM E-score” value is reported as -0.105. In the case of ATCCTGGG, the “PBM E-score” value is reported as -0.0505. For TCTTGTAA, the “PBM E-score” value was 0.111. With CACCTGGA the “PBM E-score” value was 0.00174. For CTCGGTTA, the “PBM E-score” value was -0.0602. In the case of ACGGAAGG, the “PBM E-score” value is reported as -0.157. For CTATCAAA, the “PBM E-score” value was 0.167. For TCAAGCCA, the “PBM E-score” value was -0.116. CCCCGAGC was tested, and the “PBM E-score” value was -0.128. With CTCCGGGC the “PBM E-score” value was -0.251. For AGATGCTG, the “PBM E-score” value was -0.0346. With GAAAGGTA the “PBM E-score” value was 0.041. GCGTGCCC was tested, and the “PBM E-score” value was -0.202. CCTAGAGA was tested, and the “PBM E-score” value was -0.0881. With CCTACGAG the “PBM E-score” value was -0.0653. With CTAGTGTA the “PBM E-score” value was 0.0189. AAAAACCC was tested, and the “PBM E-score” value was -0.0196. For TCGGCGCA, the “PBM E-score” value was 0.0454. GCAGCTGC was tested, and the “PBM E-score” value was 0.065. In the case of GATGCTCC, the “PBM E-score” value is reported as -0.171. GTTTCATA was tested, and the “PBM E-score” value was 0.111. In the case of AACTTCGG, the “PBM E-score” value is reported as 0.181. For CGCAACGA, the “PBM E-score” value was -0.0652. For ATTTCAGA, the “PBM E-score” value was -0.0277. For CAGATGCG, the “PBM E-score” value was -0.208. In the case of TTCGGCAA, the “PBM E-score” value is reported as 0.0192. For AAACTAGG, the “PBM E-score” value was -0.0197. In the case of CTCAAAAA, the “PBM E-score” value is reported as 0.00893. GGTCCCCA was tested, and the “PBM E-score” value was 0.0724. In the case of GTTGAACA, the “PBM E-score” value is reported as -0.17. With TAAGAAAA the “PBM E-score” value was 0.0826. For CGTTCCAA, the “PBM E-score” value was 0.0437. With CCACAAAC the “PBM E-score” value was 0.0398. With GCCCGTAC the “PBM E-score” value was -0.171. With AGCCCTCA the “PBM E-score” value was -0.352. For GGTCTGCA, the “PBM E-score” value was 0.0521. With CGCTACGC the “PBM E-score” value was -0.194. In the case of ACGCTCAT, the “PBM E-score” value is reported as 0.0679. With ATTTCGGG the “PBM E-score” value was 0.037. With AAAGGGAC the “PBM E-score” value was 0.2. For ACTGGTAT, the “PBM E-score” value was -0.037. For ACTCGACA, the “PBM E-score” value was 0.0351. CTTTATAA was tested, and the “PBM E-score” value was -0.0955. In the case of ACAATTGC, the “PBM E-score” value is reported as 0.108. ACATTTAC was tested, and the “PBM E-score” value was -0.0926. CGGCGTAG was tested, and the “PBM E-score” value was -0.0383. In the case of CTACGATC, the “PBM E-score” value is reported as -0.0186. With ACCGGGTC the “PBM E-score” value was -0.102. In the case of GGGCATAC, the “PBM E-score” value is reported as -0.0877. For CGTTTTTA, the “PBM E-score” value was 0.0591. With CTAAAGGC the “PBM E-score” value was -0.139. In the case of ATTCAGAC, the “PBM E-score” value is reported as 0.066. In the case of CCTAGTGA, the “PBM E-score” value is reported as -0.111. In the case of CTCTGTCA, the “PBM E-score” value is reported as -0.114. With CTTTGTTC the “PBM E-score” value was 0.0376. In the case of AATACGGA, the “PBM E-score” value is reported as 0.0626. For GGCGCCTA, the “PBM E-score” value was -0.0964. For TAGAGCTA, the “PBM E-score” value was -0.161. For AACGAGAG, the “PBM E-score” value was 0.132. With ATGGTACG the “PBM E-score” value was 0.128. In the case of GGTCTCAC, the “PBM E-score” value is reported as -0.00822. With AAGGGTGT the “PBM E-score” value was 0.0853. In the case of CCCACGGA, the “PBM E-score” value is reported as -0.0902. For AGATTAAT, the “PBM E-score” value was 0.204. For ATGCACAC, the “PBM E-score” value was 0.126. For AATTCGTG, the “PBM E-score” value was 0.099. In the case of CCTTGCTC, the “PBM E-score” value is reported as 0.0643. CAAAGCGA was tested, and the “PBM E-score” value was 0.13. For CATGATAG, the “PBM E-score” value was -0.0209. CGAACTTC was tested, and the “PBM E-score” value was 0.0866. CTAAGCGC was tested, and the “PBM E-score” value was 0.0774. CAGCCTGC was tested, and the “PBM E-score” value was -0.252. ACAAGCAA was tested, and the “PBM E-score” value was 0.116. In the case of AAGGACGG, the “PBM E-score” value is reported as -0.207. With CGATGTAC the “PBM E-score” value was 0.0253. In the case of CCGTTCCG, the “PBM E-score” value is reported as -0.113. With ACCCGCCA the “PBM E-score” value was -0.0482. In the case of GTCTACAA, the “PBM E-score” value is reported as -0.138. With AGACCCAG the “PBM E-score” value was -0.0984. AGCTGCCG was tested, and the “PBM E-score” value was -0.0333. With ACCCCAGA the “PBM E-score” value was -0.0606. With GAATAATC the “PBM E-score” value was 0.185. For CTCGGACC, the “PBM E-score” value was 0.0798. For CAGATTAA, the “PBM E-score” value was 0.195. GTCTGAAA was tested, and the “PBM E-score” value was -0.036. For AACCGTAA, the “PBM E-score” value was -0.144. In the case of ATCCCCGC, the “PBM E-score” value is reported as 0.0386. For AAGCCAGG, the “PBM E-score” value was -0.0511. In the case of GATTATAC, the “PBM E-score” value is reported as 0.235. For ATAGGTGA, the “PBM E-score” value was 0.00908. With CCGACCAG the “PBM E-score” value was 0.003. In the case of TGCTGCAA, the “PBM E-score” value is reported as 0.126. In the case of CTACTCGC, the “PBM E-score” value is reported as 0.0918. CAGAGCAA was tested, and the “PBM E-score” value was 0.113. CCGGAACC was tested, and the “PBM E-score” value was -0.0182. In the case of CTGGTGCA, the “PBM E-score” value is reported as -0.0138. With CATGACTC the “PBM E-score” value was -0.235. TCCCCCAA was tested, and the “PBM E-score” value was -0.362. For TGGCGGAA, the “PBM E-score” value was -0.217. With CTGTGATC the “PBM E-score” value was -0.00403. For GGATTTAA, the “PBM E-score” value was 0.00734. ACCGGAAA was tested, and the “PBM E-score” value was -0.00514. AAATCTAT was tested, and the “PBM E-score” value was 0.0789. With GCCCATAC the “PBM E-score” value was -0.0451. CTTTAATC was tested, and the “PBM E-score” value was 0.037. With CAAGGGAA the “PBM E-score” value was 0.0785. For GACTGTCA, the “PBM E-score” value was -0.108. TATAGCAA was tested, and the “PBM E-score” value was -0.0234. In the case of CAGAAGTC, the “PBM E-score” value is reported as -0.0776. For GTCTTAAA, the “PBM E-score” value was -0.116. In the case of CACGAAAG, the “PBM E-score” value is reported as -0.00164. AGTGAACC was tested, and the “PBM E-score” value was 0.0737. ACCGCGCC was tested, and the “PBM E-score” value was 0.00956. For CATACGTC, the “PBM E-score” value was -0.187. CGCCCTAA was tested, and the “PBM E-score” value was -0.171. For GGCGTCCC, the “PBM E-score” value was -0.00859. In the case of ATAATCTA, the “PBM E-score” value is reported as -0.0211. ATAAGACC was tested, and the “PBM E-score” value was 0.052. With CAGCCAGC the “PBM E-score” value was -0.115. ACCGGCCT was tested, and the “PBM E-score” value was -0.149. For AACCTTGA, the “PBM E-score” value was 0.146. In the case of CGCCGGAA, the “PBM E-score” value is reported as -0.0299. With GACACCAA the “PBM E-score” value was 0.0717. For CTGTCCCC, the “PBM E-score” value was -0.0298. In the case of ATAATTTA, the “PBM E-score” value is reported as 0.0946. In the case of AGAAGACT, the “PBM E-score” value is reported as -0.153. ACGTCCAG was tested, and the “PBM E-score” value was -0.159. In the case of CATTTGCG, the “PBM E-score” value is reported as 0.00235. In the case of ATCCCTCA, the “PBM E-score” value is reported as -0.0503. In the case of AATACTCT, the “PBM E-score” value is reported as 0.0614. In the case of CTAGCCAA, the “PBM E-score” value is reported as 0.0477. With AGTGCGAA the “PBM E-score” value was -0.149. For CGTACCCA, the “PBM E-score” value was -0.0432. For AGAATCTC, the “PBM E-score” value was -0.0801. TACGTTAA was tested, and the “PBM E-score” value was -0.0188. GTTGGAAA was tested, and the “PBM E-score” value was 0.0378. With ATTACGGC the “PBM E-score” value was 0.0634. In the case of GCTCATTA, the “PBM E-score” value is reported as -0.058. CCGGCCCG was tested, and the “PBM E-score” value was -0.108. With GGTATACA the “PBM E-score” value was 0.0828. In the case of ATAGGAAC, the “PBM E-score” value is reported as -0.0698. For ATACCTTG, the “PBM E-score” value was 0.0746. In the case of AAACAGAG, the “PBM E-score” value is reported as 0.0858. AGGCATAT was tested, and the “PBM E-score” value was -0.0234. With ACTGCAGG the “PBM E-score” value was -0.0912. In the case of GGGTTCCA, the “PBM E-score” value is reported as 0.0783. For CTTCAAGC, the “PBM E-score” value was -0.0747. For GTGCTATA, the “PBM E-score” value was 0.0796. For GAGCCCTC, the “PBM E-score” value was -0.188. CAGAGTTA was tested, and the “PBM E-score” value was 0.11. In the case of CCACCCGA, the “PBM E-score” value is reported as -0.0859. In the case of ACGATTGA, the “PBM E-score” value is reported as 0.0486. CGACCGTA was tested, and the “PBM E-score” value was -0.14. With CCCATGGA the “PBM E-score” value was -0.00741. With CATTGAAA the “PBM E-score” value was 0.147. ATTCATGG was tested, and the “PBM E-score” value was 0.0326. In the case of AGCTGTAC, the “PBM E-score” value is reported as 0.0126. GCCGCTAA was tested, and the “PBM E-score” value was 0.00842. In the case of CGCCAAGA, the “PBM E-score” value is reported as -0.121. For ATACATGA, the “PBM E-score” value was 0.00888. With CAATTCTA the “PBM E-score” value was 0.087. For ACCTGCAA, the “PBM E-score” value was -0.0751. For AATAGGTA, the “PBM E-score” value was 0.116. In the case of CGACCTTA, the “PBM E-score” value is reported as 0.0761. With AAGTTCTA the “PBM E-score” value was -0.0565. For CGGTGGCA, the “PBM E-score” value was -0.286. For TTATTGAA, the “PBM E-score” value was 0.042. For AAAACCAT, the “PBM E-score” value was 0.137. For AGATGTGC, the “PBM E-score” value was 0.115. In the case of AGCACCAG, the “PBM E-score” value is reported as -0.0385.

Reference: the supplement of paper PMC3334620
